The target in this assay is GST-Sumo2 fusion protein (UniProt P61957). Kind of assay: pull-down.

Chains of the proteins cited; added tags and fusions are not shown.
UniProt P61957: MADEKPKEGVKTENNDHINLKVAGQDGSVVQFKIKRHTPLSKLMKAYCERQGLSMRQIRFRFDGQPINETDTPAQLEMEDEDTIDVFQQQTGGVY

No constants are given. Whether binding was seen depends on the method and setting. Some entries that bind do so weakly or less than the wild type. Sequences can lack the tags named with a protein.

B1: Flag-tagged wild type Dcp1a, purified protein (protein, UniProt Q91YD3 1-602)
chain: MALSCSTVRPRRRGSALRSKMELLSRAEQEMSLAALKQHDPYITSIADLTGQVALYTFCPKANQWEKTDIEGTLFVYRRSASPYHGFTIVNRLNMHNLVEPVNKDLEFQLHEPFLLYRNASLSIYSIWFYDKNDCHRIAKLMADVVEEETRRSQQAARDKQSPSQANGCSDQRPIDILEMLSRAKDEYERNQMGGSNISSPGLQPSTQLSNLGSTETLEETPSGSQDKSAPSGHKHLTVEELFGTSLPKEQPTAMGLESEDTDKLLGDASQKEPSSFLPFPFEQSGGAPQSENLGIHSAAHHTVQPEVSTPVLITPASIAQSGDKHPPSYTLPLSPVLSPTLPAEAPTTQVPHLPRNSTMIQAVKTTPRQKSPLLNQPVPELSHSSLVASQSPFRAPVSLANPAGTALPSVDLLQKLRLTPQHDQIQAQPLGKGTMAPSFSSAAGQLATPESFIEPSSKTAAARAAVSASLSNMVLAPTLQSMQQNQDPEVFSQPKVLPSAIPIAGSPLVPATTTAVSSVLLSPSVFQQTVPRAADLERKASSPSPLTVGTAESQRKPSIILSKSQLQDTLIHLIKNDSSFLSTLHAVYLQVLTKNKDNHNL
B1: the binding entry was “binds”.

Source of the values: publication doi:10.1101/2020.11.17.386557.
